Laboratory results published in PubChem BioAssay AID493014 (National Center for Advancing Translational Sciences (NCATS), 2011).
Among all 340,000 compounds or so, about 170 (0.05%) were called active. Inconclusive means that the source gave no clear call. Such entries were picked first, then a sample of the others. The call rests on the fitted dose curve; in most records, active means well fitted inhibition curve with a large enough effect in the signal ratio, with a control signal flat (not every such curve was filed as active); inconclusive means small, poorly fitted or top-dose-only effect, or effect the other way, or a change in a side signal; inactive means flat fitted curve, though single readings scatter; the % refers to the signal ratio. Potencies beside an inconclusive call are fits to weak or partial responses and may not hold up.

Assay: qHTS Assay to Find Inhibitors of Chronic Active B-Cell Receptor Signaling;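 on activity change, negative = inhibition: plate controls were basal doxycycline-induced cells for no effect and cells given 10 µM MG132 for full effect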
Conditions: ABC-DLBCL IkBa-CBG/CBR reporter, luminescence ratio (green luciferase fused to IkBa over red control in TMD8 lymphoma cells), 4 h; activity change, negative = inhibition: at 46.1 µM (top of the series)
Procedure, shortened: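 Doxycycline induced both beetle luciferases in TMD8 lymphoma cells; IKK-driven degradation limits the IkappaBalpha-fused green signal, while red luminescence normalises for cell number and nonspecific effects. Compounds tested up to 46 uM, 4 hrs.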
Potency means the concentration at half of the fitted maximal effect.

Which activity change, negative = inhibition does the source give for `COc1ccc2[nH]c3c(c2c1)CCN=C3C` here?
Its activity change, negative = inhibition is inconclusive: 1.01%.

Which activity change, negative = inhibition does the source give for `Cc1c(C(=O)N2CCC3(CC2)OCCO3)oc2ccccc12` here?
The activity change, negative = inhibition was inconclusive: -3.02%.

For `Cc1c(N=Cc2c(O)n(CCc3ccc(F)cc3)c(=O)[nH]c2=O)c(=O)n(-c2ccccc2)n1C`, which activity change, negative = inhibition is on record?
Its activity change, negative = inhibition is inconclusive: 0.0766%.

For `COC(=O)C1=C(c2ccc(F)cc2OCc2ccccc2)C[C@@H]2CC[C@H]1N2C(=O)NC1CCN(Cc2ccccc2)CC1`, which activity change, negative = inhibition is on record?
Its activity change, negative = inhibition is inconclusive: -17.7%.

For `CCOc1ccc(C2C(C#N)=C(N)Oc3c2c(=O)oc2ccccc32)cc1` (stereo not given), which Potency is on record?
Its Potency is inconclusive: 2.51 µM [falling, full curve, poor fit].

Which “activity change, negative = inhibition” value does the source give for `Clc1ccc(Cn2ccnc2)cn1` here?
Its value is inactive: 1.35%.

Which Potency does the source give for `Cc1cccc(CN2CCN(Cc3ccc(Cl)cc3)CC2)c1` here?
The Potency was inconclusive: 11.6 µM [rising, partial curve, poor fit].

With `CCN(CC)c1ccc(CNCCc2ccc(F)cc2)cc1` as the compound, how does the activity change, negative = inhibition read?
Its activity change, negative = inhibition is inconclusive: -25.1%.

With `O=c1[nH]c(=S)[nH]c(O)c1C(c1ccccn1)c1c(O)[nH]c(=S)[nH]c1=O` as the compound, how does the “activity change, negative = inhibition” value read?
The value was inactive: 0.714%.

Which activity change, negative = inhibition does the source give for `O=S(=O)(c1ccc(Cl)cc1Cl)N1CCCC1c1cccnc1` (stereo not given) here?
The activity change, negative = inhibition was inconclusive: 18%.

With `O=C(Nc1cccc(C(F)(F)F)c1)Oc1ccccc1N1CCOCC1` as the compound, how does the activity change, negative = inhibition read?
The activity change, negative = inhibition was inconclusive: 0.828%.

With `Cc1c(N=Cc2c(O)n(C)c(=O)[nH]c2=O)c(=O)n(-c2ccccc2)n1C` as the compound, how does the “activity change, negative = inhibition” value read?
Its value is inactive: 0.121%.

For `Cc1cc(/C=C2\C(=O)NC(=O)N(c3cccc(Br)c3)C2=O)c(C)n1C`, which “activity change, negative = inhibition” value is on record?
The value was inactive: -0.0051%.

For `C/C(=N\NC(=O)c1ccccc1)c1c(O)n(Cc2ccccc2)c(=O)[nH]c1=O`, which Potency is on record?
The Potency was inconclusive: 35.5 µM [rising, single point].

Which “activity change, negative = inhibition” value does the source give for `O=P(O)(O)Cc1ccccc1OP(=O)(c1ccccc1)c1ccccc1` here?
The value was inactive: -1.63%.

For `Clc1cc(Cl)cc(NC2=NCCS2)c1`, which activity change, negative = inhibition is on record?
Its activity change, negative = inhibition is inconclusive: -7.73%.

For `C=C(CC1CC(O)[C@]2(C)OC3CC4OC5C[C@]6(C)O[C@]7(C)CCC8OC9C[C@]%10(C)OC%11C(C)=CC(=O)OC%11CC%10OC9C[C@@H](C)C8OC7CC6O[C@]5(C)C/C=C\C4OC3CC2O1)C(=O)O` (stereo not given in full), which Potency is on record?
The Potency was inconclusive: 4.47 µM [falling, single point].

For `O=c1c2ccccc2nc(/C=C/c2ccco2)n1-c1ccccc1O`, which Potency is on record?
The Potency was inconclusive: 11.2 µM [falling, partial curve].

With `O=C(NNC(=S)Nc1ccccc1)C1CCCCC1` as the compound, how does the Potency read?
The Potency was inconclusive: 25.1 µM [falling, partial curve].

For `COc1ccc(C(=O)c2sc(Nc3ccccc3)nc2N)cc1OC`, which activity change, negative = inhibition is on record?
Its activity change, negative = inhibition is inconclusive: 13.6%.

For `CC(=NCCCN1CCCCC1)c1c(O)n(Cc2ccccc2)c(=O)[nH]c1=O`, which activity change, negative = inhibition is on record?
The activity change, negative = inhibition was inconclusive: -20.7%.

For `O=C(c1cc2c(s1)-c1ccccc1OC2)N1CCC2(CC1)OCCO2`, which “activity change, negative = inhibition” value is on record?
The value was inactive: 0.702%.

With `COc1ccc(C(C)=O)cc1Cc1c(O)[nH]c(=S)[nH]c1=O` as the compound, how does the “activity change, negative = inhibition” value read?
Its value is inactive: 1.84%.

For `Cc1noc(C)c1S(=O)(=O)N(CC(=O)Nc1ccc2c(c1)OCCO2)c1ccc(C(C)C)cc1`, which activity change, negative = inhibition is on record?
Its activity change, negative = inhibition is inconclusive: 2.32%.

With `CC(C)C(=O)Nc1nnc(CCN(CCc2nnc(NC(=O)C(C)C)s2)[N+](=O)[O-])s1` as the compound, how does the activity change, negative = inhibition read?
Its activity change, negative = inhibition is inconclusive: 3.9%.

For `CCN(CC)C(=O)c1ccc(NC(=O)C2=C(C)OCCS2)cc1`, which activity change, negative = inhibition is on record?
Its activity change, negative = inhibition is inconclusive: -5.17%.

With `Cc1nc2ccc(Cl)cc2c(=O)n1-c1cccc(Cl)c1` as the compound, how does the activity change, negative = inhibition read?
Its activity change, negative = inhibition is inconclusive: -0.306%.

For `O=[N+]([O-])c1ccc(N2CCNCC2)c(Cl)c1`, which “activity change, negative = inhibition” value is on record?
Its value is inactive: 0.388%.

With `COc1ccc(NC(c2ccccc2)P(=O)(Oc2ccccc2)Oc2ccccc2)cc1` (stereo not given) as the compound, how does the “activity change, negative = inhibition” value read?
The value was inactive: -10.1%.

Which “activity change, negative = inhibition” value does the source give for `O=C(/C=C/c1ccccc1)c1c(O)n(CCc2ccccc2)c(=O)[nH]c1=O` here?
Its value is inactive: -14.7%.

For `CCC12C=CCN3CCC4(c5cc(Br)c(OC)cc5N(C)C4C(O)(C(=O)OC)C1OC(C)=O)C32` (stereo not given), which activity change, negative = inhibition is on record?
The activity change, negative = inhibition was inconclusive: 1.25%.

Which activity change, negative = inhibition does the source give for `CC/C(=C(\c1ccc(O)cc1)c1ccc(OCCN(C)C)cc1)c1ccccc1` here?
Its activity change, negative = inhibition is inconclusive: 1.68%.

With `CC(=O)NC(Cc1ccc(N(CCCl)CCCl)cc1)C(=O)O` (stereo not given) as the compound, how does the “activity change, negative = inhibition” value read?
The value was inactive: 1.94%.

With `CCCCCNc1c(C(=O)OCC)c(=O)[nH]c2ccccc12` as the compound, how does the activity change, negative = inhibition read?
Its activity change, negative = inhibition is inconclusive: -2.61%.

Which Potency does the source give for `COc1ccc2c(c1)c(CCN)c(C)n2Cc1ccccc1` here?
Its Potency is inconclusive: 11.2 µM [falling, partial curve, poor fit].

With `O=C(C[N+]12CCC(CC1)C(C(O)(c1ccccc1)c1ccccc1)C2)c1ccc(Br)cc1` (stereo not given) as the compound, how does the activity change, negative = inhibition read?
Its activity change, negative = inhibition is inconclusive: -21.5%.

Which “activity change, negative = inhibition” value does the source give for `COc1cccc(N2C(=O)/C(=C/c3ccc(C)o3)C(=O)NC2=S)c1` here?
The value was inactive: -2.3%.

For `CCn1c(C)c(C(=O)NCCc2ccccc2)c2cc(OC)ccc21`, which “activity change, negative = inhibition” value is on record?
Its value is inactive: 8.92%.

For `C[C@]12CCC3C(CC[C@H]4C[C@@H](O)CC[C@]34C)[C@H]1CC[C@H]2O` (stereo not given in full), which activity change, negative = inhibition is on record?
Its activity change, negative = inhibition is inconclusive: -4.98%.

With `Cc1ccc(N2C(=O)NC(=O)C3(Cc4ccccc4N4CCCC43)C2=O)cc1` (stereo not given) as the compound, how does the “activity change, negative = inhibition” value read?
Its value is inactive: 8.37%.
